{"source": "paper doi:10.1101/567305", "binders": {"B1": {"name": "EML4 (endogenous), echinoderm microtubule-associated protein-like 4 (protein, UniProt Q9HC35 1-981)", "chain": "MDGFAGSLDDSISAASTSDVQDRLSALESRVQQQEDEITVLKAALADVLRRLAISEDHVASVKKSVSSKGQPSPRAVIPMSCITNGSGANRKPSHTSAVSIAGKETLSSAAKSGTEKKKEKPQGQREKKEESHSNDQSPQIRASPSPQPSSQPLQIHRQTPESKNATPTKSIKRPSPAEKSHNSWENSDDSRNKLSKIPSTPKLIPKVTKTADKHKDVIINQEGEYIKMFMRGRPITMFIPSDVDNYDDIRTELPPEKLKLEWAYGYRGKDCRANVYLLPTGKIVYFIASVVVLFNYEERTQRHYLGHTDCVKCLAIHPDKIRIATGQIAGVDKDGRPLQPHVRVWDSVTLSTLQIIGLGTFERGVGCLDFSKADSGVHLCIIDDSNEHMLTVWDWQKKAKGAEIKTTNEVVLAVEFHPTDANTIITCGKSHIFFWTWSGNSLTRKQGIFGKYEKPKFVQCLAFLGNGDVLTGDSGGVMLIWSKTTVEPTPGKGPKGVYQISKQIKAHDGSVFTLCQMRNGMLLTGGGKDRKIILWDHDLNPEREIEVPDQYGTIRAVAEGKADQFLVGTSRNFILRGTFNDGFQIEVQGHTDELWGLATHPFKDLLLTCAQDRQVCLWNSMEHRLEWTRLVDEPGHCADFHPSGTVVAIGTHSGRWFVLDAETRDLVSIHTDGNEQLSVMRYSIDGTFLAVGSHDNFIYLYVVSENGRKYSRYGRCTGHSSYITHLDWSPDNKYIMSNSGDYEILYWDIPNGCKLIRNRSDCKDIDWTTYTCVLGFQVFGVWPEGSDGTDINALVRSHNRKVIAVADDFCKVHLFQYPCSKAKAPSHKYSAHSSHVTNVSFTHNDSHLISTGGKDMSIIQWKLVEKLSLPQNETVADTTLTKAPVSSTESVIQSNTPTPPPSQPLNETAEEESRISSSPTLLENSLEQTVEPSEDHSEEESEEGSGDLGEPLYEEPCNEISKEQAKATLLEDQQDPSPSS"}, "B2": {"name": "NEK9 (endogenous) (protein, UniProt Q8TD19 1-979)", "chain": "MSVLGEYERHCDSINSDFGSESGGCGDSSPGPSASQGPRAGGGAAEQEELHYIPIRVLGRGAFGEATLYRRTEDDSLVVWKEVDLTRLSEKERRDALNEIVILALLQHDNIIAYYNHFMDNTTLLIELEYCNGGNLYDKILRQKDKLFEEEMVVWYLFQIVSAVSCIHKAGILHRDIKTLNIFLTKANLIKLGDYGLAKKLNSEYSMAETLVGTPYYMSPELCQGVKYNFKSDIWAVGCVIFELLTLKRTFDATNPLNLCVKIVQGIRAMEVDSSQYSLELIQMVHSCLDQDPEQRPTADELLDRPLLRKRRREMEEKVTLLNAPTKRPRSSTVTEAPIAVVTSRTSEVYVWGGGKSTPQKLDVIKSGCSARQVCAGNTHFAVVTVEKELYTWVNMQGGTKLHGQLGHGDKASYRQPKHVEKLQGKAIRQVSCGDDFTVCVTDEGQLYAFGSDYYGCMGVDKVAGPEVLEPMQLNFFLSNPVEQVSCGDNHVVVLTRNKEVYSWGCGEYGRLGLDSEEDYYTPQKVDVPKALIIVAVQCGCDGTFLLTQSGKVLACGLNEFNKLGLNQCMSGIINHEAYHEVPYTTSFTLAKQLSFYKIRTIAPGKTHTAAIDERGRLLTFGCNKCGQLGVGNYKKRLGINLLGGPLGGKQVIRVSCGDEFTIAATDDNHIFAWGNGGNGRLAMTPTERPHGSDICTSWPRPIFGSLHHVPDLSCRGWHTILIVEKVLNSKTIRSNSSGLSIGTVFQSSSPGGGGGGGGGEEEDSQQESETPDPSGGFRGTMEADRGMEGLISPTEAMGNSNGASSSCPGWLRKELENAEFIPMPDSPSPLSAAFSESEKDTLPYEELQGLKVASEAPLEHKPQVEASSPRLNPAVTCAGKGTPLTPPACACSSLQVEVERLQGLVLKCLAEQQKLQQENLQIFTQLQKLNKKLEGGQQVGMHSKGTQTAKEEMEMDPKPDLDSDSWCLLGTDSCRPSL"}, "B3": {"name": "myc-tagged wild-type NEK9 (protein, UniProt Q8TD19 1-979)", "chain": "B2 chain"}}, "assay_in_all_cases": "co-IP", "key": {"[1]": {"target": "T1, NEK9 (endogenous) (human (endogenous in U2OS)) (UniProt Q8TD19)", "T1 sequence": "B2 chain"}, "[2]": {"target": "T2, EML4 (endogenous), echinoderm microtubule-associated protein-like 4 (human (endogenous in U2OS)) (UniProt Q9HC35)", "T2 sequence": "B1 chain"}, "[3]": {"target": "T3, YFP-EML4 full length (human) (UniProt Q9HC35)", "T3 sequence": "B1 chain"}}, "note": "No constants are given. Whether binding was seen depends on the method and setting. Binding seen in cells or lysates may run through a third protein. Some results given as binding are weak or reduced against the parent protein; the word gives no strength. For some of these results: Sequences can lack the tags named with a protein.", "data": [{"binder": "B1", "values": [{"measurement": "binding", "setting": "[1]", "value": "binds"}]}, {"binder": "B2", "values": [{"measurement": "binding", "setting": "[2]", "value": "binds"}, {"measurement": "binding", "setting": "[3]", "value": "binds"}]}, {"binder": "B3", "values": [{"measurement": "binding", "setting": "[3]", "value": "binds"}]}]}
